These results are taken from paper PMC12800066.

Chains of the proteins cited; added tags and fusions are not shown.
UniProt Q99JI6: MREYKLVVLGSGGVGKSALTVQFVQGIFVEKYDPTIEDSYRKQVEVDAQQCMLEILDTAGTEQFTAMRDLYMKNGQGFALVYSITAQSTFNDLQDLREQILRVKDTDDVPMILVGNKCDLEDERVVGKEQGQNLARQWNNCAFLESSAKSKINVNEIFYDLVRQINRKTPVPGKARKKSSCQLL

Results are given in words; binding and its absence hold for the method and conditions named. In cells and extracts the contact can be indirect. A yes stands for co-enrichment or nearness to the bait. Other partners may have been found.

In the experiment the target is T1, DCSTAMP (mouse, wild type) (mouse (endogenous in mBMMs)) (UniProt Q7TNJ0).
T1 sequence: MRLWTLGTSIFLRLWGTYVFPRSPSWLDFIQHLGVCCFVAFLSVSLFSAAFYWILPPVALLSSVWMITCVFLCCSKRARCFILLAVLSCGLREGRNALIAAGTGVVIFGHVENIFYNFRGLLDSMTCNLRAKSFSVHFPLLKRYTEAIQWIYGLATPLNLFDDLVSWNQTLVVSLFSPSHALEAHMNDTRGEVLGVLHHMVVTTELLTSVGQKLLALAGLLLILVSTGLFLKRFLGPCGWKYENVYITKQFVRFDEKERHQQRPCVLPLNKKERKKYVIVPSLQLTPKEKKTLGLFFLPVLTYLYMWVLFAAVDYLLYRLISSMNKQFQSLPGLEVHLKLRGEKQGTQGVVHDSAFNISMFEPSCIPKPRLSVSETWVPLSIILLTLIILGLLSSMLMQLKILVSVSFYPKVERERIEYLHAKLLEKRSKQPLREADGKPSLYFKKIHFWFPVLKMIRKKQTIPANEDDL
Briefly: affinity purification with mass spectrometry; Co-IP with DCSTAMP antibody from WT and Dcstamp-tail−/− lysates (mBMMs), proteins identified by mass spectrometry.

For RAP1B (from UniProt Q99JI6 1-184), the binding result is “binds”.
